Experimental data reported in article PMC11910139.
No constants are given. Whether binding was seen depends on the method and setting. Binding seen in cells or lysates may run through a third protein. Where a sequence is shown, tags or fusion partners need not be part of it.

Target: T1, ENG-HA (endoglin, HA-tagged, ectopically expressed) (UniProt P17813)
T1 sequence: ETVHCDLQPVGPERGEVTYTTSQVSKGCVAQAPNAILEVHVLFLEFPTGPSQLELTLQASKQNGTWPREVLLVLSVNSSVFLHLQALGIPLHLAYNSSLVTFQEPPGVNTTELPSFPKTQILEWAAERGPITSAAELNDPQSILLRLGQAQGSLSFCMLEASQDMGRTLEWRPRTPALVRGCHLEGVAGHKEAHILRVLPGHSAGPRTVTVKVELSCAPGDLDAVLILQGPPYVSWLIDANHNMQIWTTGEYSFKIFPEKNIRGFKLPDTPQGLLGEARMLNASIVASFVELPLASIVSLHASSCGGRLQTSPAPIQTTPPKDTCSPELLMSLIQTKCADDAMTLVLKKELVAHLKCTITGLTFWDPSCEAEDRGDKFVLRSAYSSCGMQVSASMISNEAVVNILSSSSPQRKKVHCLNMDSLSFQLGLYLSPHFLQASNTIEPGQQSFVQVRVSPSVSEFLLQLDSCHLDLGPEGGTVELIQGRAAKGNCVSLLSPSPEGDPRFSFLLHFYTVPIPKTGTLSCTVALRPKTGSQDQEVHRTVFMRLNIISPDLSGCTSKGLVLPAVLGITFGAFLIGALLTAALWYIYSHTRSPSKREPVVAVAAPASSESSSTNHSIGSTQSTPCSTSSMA
Experiment: proximity ligation; Duolink in situ PLA; HEK293T cells overexpressing ENG-HA incubated with recombinant proteins for 1 h at 37 °C, fixed; goat anti-ENG with rabbit anti-6X His, anti-VEGFA or anti-TGF-β3; only the binder purified

- binding: no binding
Substance: recombinant human VEGF protein (ligand)
